Some of the results follow. No stated cut-off is given here; in the data, active = 2 or more and inactive = the rest. Single values are uncertain here, since repeats match poorly.
These molecules were tested on Lgr5 (MarsCy1-Lgr5-EGFP, U2OS) (assay: cell-surface Lgr5 expression (SCi1 fluorescence, background-subtracted) relative to WT DMSO (fold of DMSO control); higher = more Lgr5 at the plasma membrane). Settings: U2OS MarsCy1-Lgr5-EGFP stable; treatment time: overnight; library: ActiProbe-5K (TimTec); 25 µM.
For Cc1nc(-c2n[nH]c(C)n2)n[nH]1, the “cell-surface Lgr5 expression” value was inactive: 1.23. With CCOC(=O)c1nsc2c(OCC)ncnc12 the “cell-surface Lgr5 expression” value was inactive: 0.893. C[n+]1ccc(/C=C\c2cccs2)cc1 was tested, and the “cell-surface Lgr5 expression” value was inactive: 1.07. In the case of O=c1nc(O)c2sc3nc4c(cc3c2[nH]1)CCCC4, the “cell-surface Lgr5 expression” value is reported as inactive: 1.16. With C=CCNC(=S)N/N=C/c1ccc(OC)c(CSC2=NC3C=CC=CC3S2)c1 (stereo not drawn) the “cell-surface Lgr5 expression” value was inactive: 0.627. O=S(=O)(Nc1ccc2c(c1)OCO2)c1ccc(Cl)cc1 was tested, and the “cell-surface Lgr5 expression” value was inactive: 0.924. For O=c1oc(C23CC4CC(CC(C4)C2)C3)ns1, the “cell-surface Lgr5 expression” value was inactive: 1.18. For Brc1ccc(-c2noc(-c3cccs3)n2)o1, the “cell-surface Lgr5 expression” value was inactive: 1.19. Cc1[nH]nc2c1C1(CCOCC1)C(C#N)=C(N)O2 was tested, and the “cell-surface Lgr5 expression” value was inactive: 1.05. For Cc1cc(C)c(C#[N+][O-])c(C)c1, the “cell-surface Lgr5 expression” value was inactive: 1.31. O=S1(=O)N=C(Nc2cccc3c(O)cccc23)c2ccccc21 was tested, and the “cell-surface Lgr5 expression” value was inactive: 1.08. For C12([C@@H]([C@@]1(C#N)C#N)C(=O)C13CC4CC(C1)CC(C3)C4)CCCCCC2, the “cell-surface Lgr5 expression” value was inactive: 1.12. In the case of CCOc1ccc(C2C(C#N)=C(N)OC3=C2C(=O)CC(C)(C)C3)cc1OCC (stereo not drawn), the “cell-surface Lgr5 expression” value is reported as inactive: 1.29. In the case of Cc1ccc(C)c(/N=C\c2cc3c(cc2[N+](=O)[O-])OCO3)c1, the “cell-surface Lgr5 expression” value is reported as inactive: 1.01. For C=CCn1c(S)nnc1-c1ccc(Cl)cc1Cl, the “cell-surface Lgr5 expression” value was inactive: 1.41. Nc1ccc(Br)c2cccnc12 was tested, and the “cell-surface Lgr5 expression” value was inactive: 0.946. Cc1cc(NS(=O)(=O)c2ccc(Br)cc2)no1 was tested, and the “cell-surface Lgr5 expression” value was inactive: 1.17. In the case of c1ccc(CCn2c(CSc3nc4ccccc4o3)nc3ccccc32)cc1, the “cell-surface Lgr5 expression” value is reported as inactive: 0.856. With OCCCN(CC(O)COc1ccccc1)CC(O)COc1ccccc1 (stereo not drawn) the “cell-surface Lgr5 expression” value was inactive: 1.25. In the case of O=C(CC1NCCNC1=O)OCC1CCCO1 (stereo not drawn), the “cell-surface Lgr5 expression” value is reported as inactive: 0.978. For Cc1nc2ccccn2c1-c1csc(N)n1, the “cell-surface Lgr5 expression” value was inactive: 1.27. CC(C)(C)C1CCC2(CC1)N[C@H](C(=O)O)CS2 (stereo partly drawn) was tested, and the “cell-surface Lgr5 expression” value was inactive: 1.24. Cc1ccsc1C1CC(=O)Nc2c1c(=O)nc1c(C)cccn21 (stereo not drawn) was tested, and the “cell-surface Lgr5 expression” value was inactive: 1.01. CCc1ccc(-c2noc3ncnc(NC)c23)s1 was tested, and the “cell-surface Lgr5 expression” value was inactive: 0.976. In the case of Cl.NCC(=O)c1cccs1, the “cell-surface Lgr5 expression” value is reported as inactive: 1.18. For O=Cc1ccc(N2CCCC2)o1, the “cell-surface Lgr5 expression” value was inactive: 1.09. O=C(O)Cn1cc([N+](=O)[O-])cn1 was tested, and the “cell-surface Lgr5 expression” value was inactive: 1.25. In the case of N#C/C(=C1\CCCN1)c1nnc2n1CCCCC2, the “cell-surface Lgr5 expression” value is reported as inactive: 0.926. CC(C)N1CC2=C(OC(N)=C(C#N)C2c2cccs2)/C(=C/c2cccs2)C1 (stereo not drawn) was tested, and the “cell-surface Lgr5 expression” value was inactive: 0.93. For Brc1ccc2ncnc(Nc3ccc4c(c3)OCCO4)c2c1, the “cell-surface Lgr5 expression” value was inactive: 0.391. CNC(=O)C12CC3CC(CC(C3)C1)C2 was tested, and the “cell-surface Lgr5 expression” value was inactive: 1.28. For Cc1cc(O)c(C(C)(C)c2c(O)cc(C)cc2C(C)(C)C)c(C(C)(C)C)c1, the “cell-surface Lgr5 expression” value was inactive: 1.05. In the case of CCOC(=O)c1n[nH]c2cc(C)nn2c1=O, the “cell-surface Lgr5 expression” value is reported as inactive: 0.971. With O=S(=O)(Nn1cnnc1)c1ccccc1 the “cell-surface Lgr5 expression” value was inactive: 1.2. In the case of Cn1c(=O)c2c(nc(Sc3ncnn3CC(=O)NC(C)(C)C)n2C)n(C)c1=O, the “cell-surface Lgr5 expression” value is reported as inactive: 1.33. For C(=N/N1CCN(C2c3ccccc3-c3ccccc32)CC1)/c1cccs1, the “cell-surface Lgr5 expression” value was inactive: 0.988. For OC(c1nnc(S)n1-c1ccccc1)C(O)c1nnc(S)n1-c1ccccc1 (stereo not drawn), the “cell-surface Lgr5 expression” value was inactive: 1.55. In the case of CCN(CC)NC(=S)NC1CCCCC1, the “cell-surface Lgr5 expression” value is reported as inactive: 1.21. O=[N+]([O-])c1ccc(C2NNC(=S)S2)cc1 (stereo not drawn) was tested, and the “cell-surface Lgr5 expression” value was inactive: 1.05. In the case of Cn1c(S)nnc1-c1ccco1, the “cell-surface Lgr5 expression” value is reported as inactive: 0.963. For O=S(=O)(c1ccc(F)cc1)N1CCN(c2ncccn2)CC1, the “cell-surface Lgr5 expression” value was inactive: 1.28. In the case of Oc1ccnc(C(F)(F)F)n1, the “cell-surface Lgr5 expression” value is reported as inactive: 0.954. With OC(CNC1CCCCC1)CSCC(O)CNC1CCCCC1 (stereo not drawn) the “cell-surface Lgr5 expression” value was inactive: 1.8. For Fc1ccc(OCc2nc(-c3ccncc3)no2)c(F)c1, the “cell-surface Lgr5 expression” value was inactive: 0.957. With N#Cc1c(SCc2ccc(Cl)nc2)nsc1SCc1ccc(Cl)nc1 the “cell-surface Lgr5 expression” value was inactive: 0.878. With O=C(NCc1ccco1)N1CCOCC1 the “cell-surface Lgr5 expression” value was inactive: 1.06. For Cc1ccc(C2=NNC(c3ccccc3)=Nc3ccccc32)cc1, the “cell-surface Lgr5 expression” value was inactive: 1.53. In the case of C1=NC(Cc2cccc3ccccc23)NC1.Cl (stereo not drawn), the “cell-surface Lgr5 expression” value is reported as inactive: 1.16. Cc1ccc(/C=N/NC(=O)c2ccoc2C)o1 was tested, and the “cell-surface Lgr5 expression” value was inactive: 0.989. With CC1(C)CC2(CC(C)(C)N1)OC(=O)N(CCN1C(=O)OC3(CC(C)(C)NC(C)(C)C3)C1(C)O)C2(C)O (stereo not drawn) the “cell-surface Lgr5 expression” value was inactive: 1.5. For CNC(=S)Nc1ccc(F)cc1, the “cell-surface Lgr5 expression” value was inactive: 1.14. CCCCc1nc2[nH]nc(N)c2c2c1CCC2 was tested, and the “cell-surface Lgr5 expression” value was inactive: 1.25. CS(=O)(=O)NCCc1c[nH]c2ccc(Cl)cc12 was tested, and the “cell-surface Lgr5 expression” value was inactive: 0.911.

From the supplement of paper PMC4683952
